Results reported in the supplement of paper PMC3334620.
Whole data set: some 33,000 sequences, median “E-score (-0.5 to 0.5)” near -8e-05, cut for the highest 2% near 0.23. This is one part of the list.

target: T1, Nrg2 (UniProt P38082); experiment: PBM E-score (8-mer binding enrichment) (E-score (-0.5 to 0.5)); higher = stronger / more preferred TF binding; conditions: protein concentration: 100 nM; construct: GST-full length
T1 sequence: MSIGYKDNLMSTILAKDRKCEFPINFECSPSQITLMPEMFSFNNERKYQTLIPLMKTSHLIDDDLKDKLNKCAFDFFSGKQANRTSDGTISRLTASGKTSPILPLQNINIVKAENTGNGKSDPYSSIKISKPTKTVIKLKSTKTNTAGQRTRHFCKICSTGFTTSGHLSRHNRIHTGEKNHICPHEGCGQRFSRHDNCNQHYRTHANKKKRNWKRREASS
Method: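 Universal 'all 10-mer' protein binding microarrays (Agilent AMADID 015681) probed with GST-tagged S. cerevisiae TFs (full-length or DBD) made by in vitro transcription/translation (PURExpress), about 100-200 nM. Bound TF was detected with fluorescent anti-GST. Each ungapped 8-mer (which stands for itself and its reverse complement) is scored by the PBM enrichment score (E-score), a modified Wilcoxon-Mann-Whitney statistic from -0.5 to +0.5, computed with the Universal PBM Analysis Suite. Scale: above 0.35 generally sequence-specific binding.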

Sequence	PBM E-score
AGAGCTAG	-0.00296
CTAGAGGA	-0.244
GTAGTCAC	-0.0849
AAGGGGTG	-0.00477
CGCTACTC	-0.0612
ACTTCGAT	0.152
AGTGTAGC	0.0126
GCCTGCAA	0.0554
GATCTGCC	0.0212
AAAGAATC	-0.18
GAGCAGCA	-0.0138
ACAGCAAT	0.175
CCGTTCCC	-0.0441
ATACGATC	0.196
CGATGAAC	-0.0145
ACAAGTGG	-0.0859
AGGCGGTC	-0.0583
CCTCGCGA	0.179
ATCCGTAC	0.0682
ACATGCAA	0.125
CTTAAACC	-0.128
GACAATCA	0.0629
CACGTGGC	-0.313
CCTGTTTA	0.0654
CGAGTAAG	0.165

Sequence	PBM E-score
GGCCCACA	-0.0257
GGACCACC	0.0365
AGCTAGTA	0.214
CTTCAAAC	0.0644
GCGATGAA	0.0982
AGCTAGCT	0.244
AGTATTTA	0.0065
CTGAAACA	-0.107
ATGGTAGA	0.0815
GAGGAGGC	-0.313
AACACGGT	0.00997
AACAAATT	0.251
CTTTCTTC	0.118
CGATGTAG	-0.117
GGAACATA	0.0695
CTAACGGA	0.101
AGAAATAC	0.128
AGGATACG	-0.197
CCTTAACG	-0.00697
CACCACCA	-0.0541
AAATGCGG	0.0989
GTTTGAAA	0.169
ACAATGTG	0.0207
GCCACATA	0.075
CGCTTACC	-0.0993

Sequence	PBM E-score
ACATGCGT	-0.0879
CGACGGAC	0.197
CCATTGGA	0.00188
GATGTGTA	0.0509
ATCAAGCG	0.0683
CATTTCGC	0.184
CTTTGCGC	0.136
AAAATGAA	0.0156
GCGCATTA	0.166
AGATCTTA	-0.0553
GTTACTCA	0.157
CTTGCGCA	0.264
CGGGATGC	-0.163
CGTGATGC	-0.00211
CCGACGGC	-0.193
CAGTCCCG	-0.128
CGTGTCAA	-0.274
GCGATTAA	0.193
AGTAGCTG	-0.116
AACTATAT	0.153
GAGGCGTA	0.0454
CGTGCTAG	-0.162
ATCATCTG	0.108
ACCATTTG	0.0653
AAGATTTC	0.139

Sequence	PBM E-score
TCAGACCA	0.00081
AGCTTGAA	-0.0726
GAACTAAA	0.0925
CCTTATGA	0.12
CCTTTCAG	0.0381
CAAGTTAC	0.0198
GGAGCGCA	-0.236
ATTTTACC	0.181
GTTTGGAA	-0.056
CGCTTCCA	-0.0694
ATAGGCGG	0.0155
CGCGACAC	0.00607
GGACAGAC	-0.124
ACCACGTA	-0.278
GAAGGATC	0.00353
AGTGCGTA	-0.0257
CGAGGAAG	-0.209
GACAGTGC	0.0298
ACTTCTCA	0.0225
CAATACCG	0.0306
CGTGAGCA	-0.157
CATTTGGA	0.166
AGAGTTCA	-0.0673
GACCCGTC	-0.108
CGGGGGGA	-0.406

Some values from above:
PBM E-score, CAAGTTAC reads 0.0198
PBM E-score, AGTGCGTA reads -0.0257
PBM E-score, AGAGTTCA reads -0.0673
PBM E-score, CGTGAGCA reads -0.157
PBM E-score, GAAGGATC reads 0.00353

Continued.

Sequence	PBM E-score
CTAAGTTC	-0.00111
AACATATA	0.149
AGGGCTGG	-0.176
GGAGATCC	-0.012
TTGCAAAA	0.165
AATGTCTA	-0.0517
CACCGACC	-0.106
AGACCGCA	0.0799
ACTGCGAT	0.0256
AATGTTAA	-0.0987
CAAGCAAG	0.014
AGCTCCAA	0.0886
GGCCTCGA	-0.0833
CCTGGCAA	0.0435
GTCACTAA	0.173
ATTACCGC	0.0374
TCAAGGGA	0.0644
GCTTCCCC	-0.258
ATCAACCC	0.297
AGGCGCGA	0.14
ACCCCACA	0.201
AAGGGTGC	0.141
TAGTCTCA	-0.181
CATTTCCG	0.182
CCCGCCAG	-0.148

No new results follow: entries from further up.
Sequence	PBM E-score
ATTACCGC	0.0374
TCAAGGGA	0.0644

Carrying on.

Sequence	PBM E-score
CTACGACA	0.0855
ACCCAGAG	0.133
CGTTAGGC	-0.197
CAAAAAGA	0.0883
AACCTACT	0.0513
CTCGGAGC	0.0933
CCCGTAGC	-0.176
AATAAGCG	-0.0202
CTACACAC	0.00452
AATTCACA	0.204
GACGGGGC	-0.121
CAACGTTA	0.101
CGAAGTGC	0.148
GTATTCCA	0.0351
TTACTAAA	0.123
CCTAGGCG	-0.117
GGCAAGTA	0.104
AATAAAAC	0.12
CATGATTC	-0.02
ACACAACC	-0.0638
GTCAGAAA	0.0126
ATAATGGA	0.0299
CGTGCAGC	0.126
ACCCATTC	0.0717
ATTACTAA	0.17

Sequence	PBM E-score
GGGGGCCA	-0.321
ACATGCTG	-0.00272
ATACTATG	0.167
GGGAGGTA	-0.0472
TCAGAGCA	-0.0393
GCACGGCA	-0.0219
AAATTCCA	0.254
ATATGATA	0.249
ACGCTGTG	-0.0124
ACTCAAAT	-0.0419
ACAACAAC	0.0873
GACTTAAC	-0.229
AATTAATA	0.303
GAGTGCGC	0.0551
CGCTCCAG	-0.0707
ATCACGTG	0.0394
ATAATATA	0.268
AATCAAGC	-0.107
AGACACCC	-0.166
CAACTTAC	-0.199
CTGGCCCA	-0.115
AGGTGTCG	0.0158
